Several values for one entry are separate records, joined by “and”; a condition that tells them apart may be missing. Equal entries are not always repeated. Where two headings read alike, the source gives them in different places. The source gives many values for each of these; only a part stands here.
Tested on: CDC1551(ΔdosR) mutant
Format: cell-based
Conditions: for Counts per million (CPM): DosR mutant treated with HC101A, replicates 1, 2; for log2 Fold change: DosR mutant, HC101A vs DMSO

C[C@@H]1CC[C@H]2[C@@H](C)C(=O)O[C@@H]3O[C@]4(C)CC[C@@H]1[C@]32OO4 [HC101A, artemisinin, reference compound]
Counts per million (CPM) (gene MT0169 Rv0160c PE): 26.44 CPM and 29.07 CPM
Counts per million (CPM) (gene MT0258 Rv0244c fadE5): 759.9 CPM and 1,123.31 CPM
Counts per million (CPM) (gene MT0273 Rv0260c): 15.8 CPM and 7.243 CPM
Counts per million (CPM) (gene MT0468 Rv0452): 461.5 CPM and 261.5 CPM
log2 Fold change (gene MT0468 Rv0452): 1.384
Counts per million (CPM) (gene MT0530 Rv0509 hemA): 1,704.93 CPM and 1,028.46 CPM
log2 Fold change (gene MT0530 Rv0509 hemA): 1.03
Counts per million (CPM) (gene MT0531 Rv0510 hemC): 794.5 CPM and 398.4 CPM
log2 Fold change (gene MT0531 Rv0510 hemC): 1.247
Counts per million (CPM) (gene MT0532 Rv0511 cysG): 1,631.80 CPM and 832.8 CPM
Counts per million (CPM) (gene MT0533 Rv0512 hemB): 601.2 CPM and 365.7 CPM
Counts per million (CPM) (gene MT0583 Rv0557): 376.9 CPM and 224.6 CPM
Counts per million (CPM) (gene MT0586 Rv0560c): 106.2 CPM and 65.09 CPM
Counts per million (CPM) (gene MT0658 Rv0630c recB): 75.59 CPM and 34.26 CPM
Counts per million (CPM) (gene MT0705 Rv0676c mmpL5): 3,503.44 CPM and 3,550.24 CPM
Counts per million (CPM) (gene MT0706 Rv0677c mmpS5): 1,184.86 CPM and 1,231.08 CPM
Counts per million (CPM) (gene MT0706.1 Rv0678): 272.5 CPM and 202.4 CPM
Counts per million (CPM) (gene MT0772.5 Rv0747 PE_PGRS): 200 CPM and 58.24 CPM
Counts per million (CPM) (gene MT0808 Rv0784): 811.8 CPM and 173.4 CPM
Counts per million (CPM) (gene MT0956 Rv0929 pstC2): 370.5 CPM and 355.6 CPM
Counts per million (CPM) (gene MT1073 Rv1043c): 209.4 CPM and 170.4 CPM
Counts per million (CPM) (gene MT1123 Rv1091 PE_PGRS): 76.29 CPM and 18.21 CPM
Counts per million (CPM) (gene MT1296 Rv1257c): 517.1 CPM and 305 CPM
Counts per million (CPM) (gene MT1297 Rv1258c): 201.7 CPM and 152.3 CPM
Counts per million (CPM) (gene MT1303 Rv1265): 292.5 CPM and 237.3 CPM
Counts per million (CPM) (gene MT1424 Rv1380 pyrB): 370.4 CPM and 97 CPM
Counts per million (CPM) (gene MT1425 Rv1381 pyrC): 782.7 CPM and 262.4 CPM
Counts per million (CPM) (gene MT1426): 173.6 CPM and 47.38 CPM
Counts per million (CPM) (gene MT1427 Rv1383 car A): 572.9 CPM and 296.4 CPM
Counts per million (CPM) (gene MT1428 Rv1384 carB): 1,369.37 CPM and 816.2 CPM
Counts per million (CPM) (gene MT1429 Rv1385 pyrF): 137 CPM and 37.59 CPM
Counts per million (CPM) (gene MT1620 Rv1569 bioF): 87.71 CPM and 20.65 CPM
Counts per million (CPM) (gene MT1836 Rv1787 PPE): 284.7 CPM and 109.7 CPM
Counts per million (CPM) (gene MT1893 Rv1845c): 347.7 CPM and 58.83 CPM
Counts per million (CPM) (gene MT2126 Rv2066 cobl): 68.04 CPM and 27.11 CPM
Counts per million (CPM) (gene MT2264 Rv2208 cobS): 65.14 CPM and 14.1 CPM
Counts per million (CPM) (gene MT2615 Rv2540c aroF): 668.7 CPM and 48.55 CPM
Counts per million (CPM) (gene MT2631): 100.8 CPM and 15.96 CPM
Counts per million (CPM) (gene MT2863 Rv2794c): 147.5 CPM and 103.9 CPM
Counts per million (CPM) (gene MT3110 Rv3026c): 98.61 CPM and 28.29 CPM
Counts per million (CPM) (gene MT3133 Rv3048c nrdG): 232.6 CPM and 256.1 CPM
Counts per million (CPM) (gene MT3134 Rv3049c): 487.4 CPM and 585.1 CPM
Counts per million (CPM) (gene MT3178 Rv3094c): 44.69 CPM and 16.44 CPM
Counts per million (CPM) (gene MT3293 Rv3199c): 141.7 CPM and 118.6 CPM
Counts per million (CPM) (gene MT3327 Rv3230c): 1,566.59 CPM and 1,092.38 CPM
Counts per million (CPM) (gene MT3441 Rv3338): 119.8 CPM and 82.42 CPM
Counts per million (CPM) (gene MT3481 Rv3371): 86.74 CPM and 29.17 CPM
Counts per million (CPM) (gene MT3492 Rv3384c): 51.14 CPM and 8.907 CPM
log2 Fold change (gene MT3492 Rv3384c): 1.051
Counts per million (CPM) (gene MT3498 Rv3391 acrA1): 73.2 CPM and 47.47 CPM
Counts per million (CPM) (gene MT3539 Rv3433c): 60.36 CPM and 7.341 CPM
log2 Fold change (gene MT3539 Rv3433c): 1.232
Counts per million (CPM) (gene MT3581 Rv3477 PE): 30.05 CPM and 39.25 CPM
Counts per million (CPM) (gene MT3591 Rv3487c lipF): 22.96 CPM and 20.56 CPM
Counts per million (CPM) (gene MT3696 Rv3590c PE_PGRS): 89 CPM and 5.481 CPM
log2 Fold change (gene MT3696 Rv3590c PE_PGRS): 1.338
Counts per million (CPM) (gene MT3947 Rv3839): 12.45 CPM and 10.47 CPM
Counts per million (CPM) (gene MT3963 Rv3848): 225.5 CPM and 354.9 CPM
Counts per million (CPM) (gene MT3969 Rv3854c): 246.5 CPM and 439.4 CPM
Counts per million (CPM) (gene MT3970 Rv3855): 59.46 CPM and 89.17 CPM
Counts per million (CPM) (gene MT3976 Rv3862c): 184.3 CPM and 55.7 CPM
Counts per million (CPM) (gene MT3978 Rv3864): 526.5 CPM and 634.4 CPM
Counts per million (CPM) (gene MT3988 Rv3874): 1,214.01 CPM and 1,648.46 CPM
Counts per million (CPM) (gene MT3989 Rv3875 esat6): 1,889.51 CPM and 2,881.50 CPM

Source: patent US11717508B2, “Compounds, compositions, and methods for inhibiting bacterial growth” (priority 2016, dated 2023)
